Measurements: US6797461B2, “Tryptase substrates and assay for tryptase activity using same” (Promega Corporation, priority 2000, dated 2004)
Not every detail of the peptide structures is certain; ends, links or a residue may be inferred. Residues, ends and D or L forms follow the SMILES beside them. *: point of attachment. ACC = NC(=O)Cc1cc(=O)oc2cc(N*)ccc12

Sequences of proteins named here, by UniProt entry; tags and fusion partners are left off. Residues count along the entry.
UniProt Q15661, 31-275 N132K: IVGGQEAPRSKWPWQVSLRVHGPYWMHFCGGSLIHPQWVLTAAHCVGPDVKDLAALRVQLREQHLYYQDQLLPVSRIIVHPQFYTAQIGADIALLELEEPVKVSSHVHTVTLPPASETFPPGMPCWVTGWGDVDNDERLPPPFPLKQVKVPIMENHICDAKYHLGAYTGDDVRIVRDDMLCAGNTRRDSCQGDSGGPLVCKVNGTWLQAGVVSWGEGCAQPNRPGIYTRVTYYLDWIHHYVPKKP
UniProt Q15661, 31-275: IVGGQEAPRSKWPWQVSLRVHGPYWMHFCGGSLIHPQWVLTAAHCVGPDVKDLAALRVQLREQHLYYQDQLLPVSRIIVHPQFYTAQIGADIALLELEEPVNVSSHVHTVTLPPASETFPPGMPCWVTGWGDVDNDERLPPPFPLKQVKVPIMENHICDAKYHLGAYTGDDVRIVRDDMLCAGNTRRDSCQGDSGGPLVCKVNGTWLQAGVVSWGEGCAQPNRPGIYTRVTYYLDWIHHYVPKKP

Experiments:
[1] = system: T1, recombinant human β-II tryptase (lung tryptase) (Homo sapiens, N132K); assay: Single substrate kinetic analysis of fluorogenic ACC substrates, lung (β-II) tryptase; assay type: biochemical; settings: for kcat: Lung (β-II) Tryptase, 30° C., 100 mM HEPES pH 7.5, 10% glycerol, 0.1 mg/ml heparin
T1 construct: Secreted mature βI- and βII-tryptases were purified to homogeneity; made in house; host or cells: Pichia pastoris GS115
Protocol: (§1) βI- and βII-tryptase concentrations ranged from 5 nM to 15 nM. The final concentration of substrate ranged from 5 μM to 200 μM; the concentration of DMSO in the assay was less than 5%. Hydrolysis of ACC substrates was monitored fluorometrically with an excitation wavelength of 380 nm and an emission wavelength of 460 nm on a Fluoromax-2 spectrofluorimeter.
(§2) Tryptase activity was monitored at 30° C. in assay buffer containing 100 mM HEPES, pH 7.5, 10% w/v glycerol, and 0.1 mg/ml heparin. Substrate stock solutions were prepared in DMSO. The final concentration of substrate ranged from 5 μM to […], the concentration of DMSO in the assay was less than 5%. Tryptase concentration was 5 nM.
(§3) Hydrolysis of ACC substrates was monitored fluorometrically with an excitation wavelength of 380 nm and emission wavelength of 450 nm on a Fluoromax-2 spectrofluorimeter. The amino-terminus of each polypeptide was acetylated.
(§4) To quantitate tryptase βI and βII dependence on extended substrate specificity, several peptide substrates were synthesized and the kinetic constants determined for each of the enzymes. […] All of these effects are manifested in the Km term, not the kcat term.
(§5) Kinetic parameters were independently obtained for both recombinant β-I and β-II tryptases against rational substitutions in the substrates at P2-P4 positions.

[2] = biological target: T2, recombinant human β-I tryptase (skin tryptase) (Homo sapiens, UniProt Q15661); assay: Single substrate kinetic analysis of fluorogenic ACC substrates, skin (β-I) tryptase; assay type: biochemical; settings: for kcat: Skin (β-I) Tryptase, 30° C., 100 mM HEPES pH 7.5, 10% glycerol, 0.1 mg/ml heparin
T2 construct: Secreted mature βI- and βII-tryptases were purified to homogeneity; made in house; host or cells: Pichia pastoris
Protocol: as §1, §2, §3, §4, §5

| Compound | kcat [1] [s⁻¹] | preference over Ac-PANK-ACC (P3-position, kcat/Km) ([1]; tryptase βII) | preference over Ac-PRTK-ACC (P2-asparagine over P2-threonine, kcat/Km) ([1]; tryptase βII) | kcat [2] [s⁻¹] | preference over Ac-PANK-ACC (P3-position, kcat/Km) ([2]; tryptase βI) | preference over Ac-PRTK-ACC (P2-asparagine over P2-threonine, kcat/Km) ([2]; tryptase βI) |
| --- | --- | --- | --- | --- | --- | --- |
| CC(=O)N1CCC[C@H]1C(=O)N[C@@H](CCCNC(=N)N)C(=O)N[C@@H](CC(N)=O)C(=O)N[C@@H](CCCCN)C(=O)Nc1ccc2c(CC(N)=O)cc(=O)oc2c1 [Ac-PRNK-ACC, Acetyl-Prolyl-Arginyl-Asparaginyl-Lysyl-aminoacetamide coumarin] (Ac-PRNK-{ACC}) | 16.84 ± 0.27 | approximately 10 fold | approximately 2 fold | 17.84 ± 0.40 | approximately 10 fold | approximately 2 fold |
| CC(=O)N1CCC[C@H]1C(=O)N[C@@H](CCCNC(=N)N)C(=O)N[C@@H](CC(N)=O)C(=O)N[C@@H](CCCNC(=N)N)C(=O)Nc1ccc2c(CC(N)=O)cc(=O)oc2c1 [Ac-PRNR-ACC] (Ac-PRNR-{ACC}) | 21.75 ± 0.67 | – | – | 20.94 ± 0.57 | – | – |
| CC(=O)N1CCC[C@H]1C(=O)N[C@@H](CCCNC(=N)N)C(=O)N[C@H](C(=O)N[C@@H](CCCCN)C(=O)Nc1ccc2c(CC(N)=O)cc(=O)oc2c1)[C@@H](C)O [Ac-PRTK-ACC] (Ac-PRTK-{ACC}) | 18.67 ± 0.30 | – | – | 18.34 ± 0.33 | – | – |
